Measured values: paper doi:10.1101/2023.04.19.537613

The chains behind the UniProt entries cited, without tags or fusion partners.
UniProt Q04656: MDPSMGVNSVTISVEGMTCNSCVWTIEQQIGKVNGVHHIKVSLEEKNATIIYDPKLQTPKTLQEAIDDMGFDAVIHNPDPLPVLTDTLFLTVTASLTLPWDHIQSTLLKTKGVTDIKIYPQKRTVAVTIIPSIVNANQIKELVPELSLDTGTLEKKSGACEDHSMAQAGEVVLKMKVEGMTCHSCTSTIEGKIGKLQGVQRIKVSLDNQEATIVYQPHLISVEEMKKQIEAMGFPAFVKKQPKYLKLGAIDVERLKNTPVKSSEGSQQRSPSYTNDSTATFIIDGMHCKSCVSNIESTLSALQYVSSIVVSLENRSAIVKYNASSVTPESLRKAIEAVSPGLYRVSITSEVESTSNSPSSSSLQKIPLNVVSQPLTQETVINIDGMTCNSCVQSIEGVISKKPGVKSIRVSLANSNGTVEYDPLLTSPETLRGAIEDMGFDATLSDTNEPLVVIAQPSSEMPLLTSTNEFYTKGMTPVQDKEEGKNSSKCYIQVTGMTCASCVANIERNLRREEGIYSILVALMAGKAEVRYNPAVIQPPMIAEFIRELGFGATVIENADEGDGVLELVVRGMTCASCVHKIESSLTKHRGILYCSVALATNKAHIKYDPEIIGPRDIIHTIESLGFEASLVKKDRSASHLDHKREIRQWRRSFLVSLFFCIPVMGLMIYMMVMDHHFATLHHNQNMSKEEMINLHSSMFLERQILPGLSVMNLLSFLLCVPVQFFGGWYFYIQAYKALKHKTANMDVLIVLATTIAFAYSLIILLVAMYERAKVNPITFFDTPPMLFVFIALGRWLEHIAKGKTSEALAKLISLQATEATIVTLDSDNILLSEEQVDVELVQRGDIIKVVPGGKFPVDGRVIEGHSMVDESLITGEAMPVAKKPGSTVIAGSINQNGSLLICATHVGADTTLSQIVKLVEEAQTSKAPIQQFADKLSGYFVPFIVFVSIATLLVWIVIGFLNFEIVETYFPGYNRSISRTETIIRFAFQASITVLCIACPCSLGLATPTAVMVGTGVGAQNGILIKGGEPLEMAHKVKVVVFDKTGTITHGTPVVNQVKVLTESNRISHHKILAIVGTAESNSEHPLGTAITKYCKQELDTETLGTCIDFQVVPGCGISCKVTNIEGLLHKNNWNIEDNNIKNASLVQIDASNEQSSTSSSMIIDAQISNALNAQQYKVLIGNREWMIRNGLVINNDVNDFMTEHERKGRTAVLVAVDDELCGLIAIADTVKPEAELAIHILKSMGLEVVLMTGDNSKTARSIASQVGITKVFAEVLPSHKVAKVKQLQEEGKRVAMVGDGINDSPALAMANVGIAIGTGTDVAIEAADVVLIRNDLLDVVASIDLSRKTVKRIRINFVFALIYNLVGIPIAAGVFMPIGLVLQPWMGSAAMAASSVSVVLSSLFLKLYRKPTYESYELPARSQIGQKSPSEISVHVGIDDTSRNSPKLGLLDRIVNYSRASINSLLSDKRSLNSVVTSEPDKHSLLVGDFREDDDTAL
UniProt P35670: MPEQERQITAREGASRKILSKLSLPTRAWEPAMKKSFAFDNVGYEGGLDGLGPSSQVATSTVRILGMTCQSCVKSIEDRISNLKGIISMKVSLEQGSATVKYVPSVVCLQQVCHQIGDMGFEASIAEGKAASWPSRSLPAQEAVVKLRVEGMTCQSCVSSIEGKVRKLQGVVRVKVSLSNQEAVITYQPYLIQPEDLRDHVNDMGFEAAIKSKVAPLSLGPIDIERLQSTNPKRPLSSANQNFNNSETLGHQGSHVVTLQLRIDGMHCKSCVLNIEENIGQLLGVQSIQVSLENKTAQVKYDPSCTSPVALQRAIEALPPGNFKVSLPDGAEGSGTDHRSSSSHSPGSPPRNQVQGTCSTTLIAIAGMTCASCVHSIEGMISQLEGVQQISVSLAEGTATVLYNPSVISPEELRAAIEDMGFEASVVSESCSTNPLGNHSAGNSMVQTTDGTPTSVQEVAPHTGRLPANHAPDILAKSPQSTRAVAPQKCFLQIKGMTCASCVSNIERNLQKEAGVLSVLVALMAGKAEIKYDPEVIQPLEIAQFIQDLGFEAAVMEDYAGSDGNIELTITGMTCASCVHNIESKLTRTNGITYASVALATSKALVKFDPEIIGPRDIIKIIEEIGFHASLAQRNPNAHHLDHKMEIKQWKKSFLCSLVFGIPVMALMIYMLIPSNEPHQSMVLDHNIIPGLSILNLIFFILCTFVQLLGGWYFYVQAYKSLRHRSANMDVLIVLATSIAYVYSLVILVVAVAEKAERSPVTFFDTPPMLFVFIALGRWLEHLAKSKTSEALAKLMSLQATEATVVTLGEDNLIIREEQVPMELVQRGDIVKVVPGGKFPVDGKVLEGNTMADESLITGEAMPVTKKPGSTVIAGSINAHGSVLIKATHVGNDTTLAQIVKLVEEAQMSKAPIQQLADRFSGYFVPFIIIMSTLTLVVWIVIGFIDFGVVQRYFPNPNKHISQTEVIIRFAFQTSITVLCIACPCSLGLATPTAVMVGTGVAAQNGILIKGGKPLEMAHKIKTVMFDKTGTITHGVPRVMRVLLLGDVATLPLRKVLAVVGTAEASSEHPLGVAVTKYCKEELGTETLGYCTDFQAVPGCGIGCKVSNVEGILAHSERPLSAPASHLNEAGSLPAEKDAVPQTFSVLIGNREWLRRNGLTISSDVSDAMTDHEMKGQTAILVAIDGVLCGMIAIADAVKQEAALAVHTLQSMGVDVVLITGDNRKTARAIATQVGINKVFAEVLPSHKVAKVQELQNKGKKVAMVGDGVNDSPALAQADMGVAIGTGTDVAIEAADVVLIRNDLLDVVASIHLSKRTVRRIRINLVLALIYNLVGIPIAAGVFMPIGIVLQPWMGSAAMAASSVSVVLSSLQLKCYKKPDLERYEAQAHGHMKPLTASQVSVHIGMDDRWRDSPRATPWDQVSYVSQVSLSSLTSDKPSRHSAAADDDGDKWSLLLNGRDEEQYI
UniProt A0A8I3PSI8: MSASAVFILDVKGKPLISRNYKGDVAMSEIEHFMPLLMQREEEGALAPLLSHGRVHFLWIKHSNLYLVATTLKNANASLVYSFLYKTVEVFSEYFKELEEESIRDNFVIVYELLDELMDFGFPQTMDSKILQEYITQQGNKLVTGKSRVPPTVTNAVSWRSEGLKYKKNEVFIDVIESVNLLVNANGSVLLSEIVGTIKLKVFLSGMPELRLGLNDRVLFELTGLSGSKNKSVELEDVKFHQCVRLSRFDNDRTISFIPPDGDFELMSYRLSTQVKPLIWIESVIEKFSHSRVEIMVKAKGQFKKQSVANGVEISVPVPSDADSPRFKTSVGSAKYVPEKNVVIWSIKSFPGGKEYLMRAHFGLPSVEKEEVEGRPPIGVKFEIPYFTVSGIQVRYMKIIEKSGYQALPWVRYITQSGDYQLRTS
UniProt A0A8I3MGM6: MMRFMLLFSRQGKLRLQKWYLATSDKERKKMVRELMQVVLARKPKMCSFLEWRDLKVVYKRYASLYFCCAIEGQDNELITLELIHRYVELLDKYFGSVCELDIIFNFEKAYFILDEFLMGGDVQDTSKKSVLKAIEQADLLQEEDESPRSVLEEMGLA

Legend:
[1] = biological target: APEX2-mKO2-HA-ATP7A (human) (UniProt Q04656); experiment: proximity labelling
APEX2-ATP7B-EGFP (human) = APEX2-ATP7B-EGFP (human) (UniProt P35670); experiment: proximity labelling

| binding [1] | binding (APEX2-ATP7B-EGFP (human)) | Substance |
| --- | --- | --- |
| binds | binds | AP-1 complex µ subunit AP1M2 (from UniProt A0A8I3PSI8 1-425) |
| binds | binds | AP-1 complex σ subunit AP1S1 (from UniProt A0A8I3MGM6 1-158) |

No constants are given. Whether binding was seen depends on the method and setting. In cells and extracts the contact can be indirect. These calls come from enrichment with a bait or labelling near it, and not all partners need be listed.
